In EP0166969A2, “Haemostyptic” (priority 1984, dated 1986):
For at least one compound, name, drawing or mass did not settle the structure.

How the values were obtained:
Schweineleber = assay: Comparative haemostyptic efficacy of components, mixtures and esters in rat models and pig liver; format: in vivo, Ratten; conditions: qualitative
Source text: Unter einem Hämostypticum versteht man Mittel zur Blutstillung, die sowohl die Blutungszeit als auch den Blutverlust bei mechanischen Verletzungen herabsetzen. Die Blutgerinnung ist ein in den letzten Jahren intensiv untersuchter komplexer Vorgang, der sich in verschiedenster Weise beeinflussen läßt. Die Blutstillung und der Blutverlust hängen wiederum in erster Linie vom Umfang und der Geschwindigkeit der Blutgerinnung ab, jedoch spielen hier auch noch weitere Faktoren mit hinein, die bisher noch nicht ausreichend untersucht und geklärt werden konnten. Eine besondere Schwierigkeit bei der Untersuchung von Hämostyptica ist die Erarbeitung von zuverlässigen und reproduzierbaren Versuchsbedingungen am Menschen und am Tier. Eine umfassende Zusammenstellung der bisher bekannten Methoden sowie die Beschreibung einer verbesserten Methode an der Ratte wird beschrieben in der Dissertation von Ennen 1981, am Institut für Pharmakologie, Toxikologie und Pharmazie der Tierärtzlichen Hochschule Hannover unter Leitung von Prof. Dr. K. Kaemmerer (Methodenbeitrag zur Bestimmung von Blutungszeit und Blutverlust bei Leberparenchymblutungen kleiner Versuchstiere). Im Rahmen dieser Untersuchungen wurden auch verschiedene bekannte Hämostasesysteme vergleichend untersucht. Zu den untersuchten Produkten gehörte auch das Hämostypticum Revici, welches von der Anmelderin seit Jahren vertrieben wird. […]

[1] = Merck Index, 10th ed., 1983, no. 1537; cited from earlier work

CCCCOC(=O)CC(O)(CC(=O)OCCCC)C(=O)OCCCC [TBC, Tri-n-butylcitrat]
hämostyptische Wirksamkeit (Schweineleber): sehr starke und reproduzierbare Wirksamkeit
Löslichkeit in Wasser [1]: in Wasser unlösliche
